Experimental data published in paper PMC6642318.
Results are given in words; binding and its absence hold for the method and conditions named. In cells and extracts the contact can be indirect.

Chains of the proteins cited; added tags and fusions are not shown.
UniProt Q6ZNE5: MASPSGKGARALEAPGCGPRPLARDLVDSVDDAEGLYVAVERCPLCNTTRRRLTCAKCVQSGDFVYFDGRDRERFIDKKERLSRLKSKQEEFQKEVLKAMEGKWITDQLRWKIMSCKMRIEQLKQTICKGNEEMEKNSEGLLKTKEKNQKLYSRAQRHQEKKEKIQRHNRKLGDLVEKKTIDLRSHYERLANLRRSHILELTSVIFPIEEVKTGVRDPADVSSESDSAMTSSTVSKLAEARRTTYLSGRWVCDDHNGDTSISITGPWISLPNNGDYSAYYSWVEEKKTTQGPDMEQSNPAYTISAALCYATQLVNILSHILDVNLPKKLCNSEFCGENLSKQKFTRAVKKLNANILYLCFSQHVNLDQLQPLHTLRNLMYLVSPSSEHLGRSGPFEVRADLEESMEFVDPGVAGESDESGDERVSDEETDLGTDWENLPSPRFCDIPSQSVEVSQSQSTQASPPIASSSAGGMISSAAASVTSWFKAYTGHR

Molecular target: T1, NDP52 (endogenous) (human (endogenous in HeLa)) (UniProt Q13137)
T1 sequence: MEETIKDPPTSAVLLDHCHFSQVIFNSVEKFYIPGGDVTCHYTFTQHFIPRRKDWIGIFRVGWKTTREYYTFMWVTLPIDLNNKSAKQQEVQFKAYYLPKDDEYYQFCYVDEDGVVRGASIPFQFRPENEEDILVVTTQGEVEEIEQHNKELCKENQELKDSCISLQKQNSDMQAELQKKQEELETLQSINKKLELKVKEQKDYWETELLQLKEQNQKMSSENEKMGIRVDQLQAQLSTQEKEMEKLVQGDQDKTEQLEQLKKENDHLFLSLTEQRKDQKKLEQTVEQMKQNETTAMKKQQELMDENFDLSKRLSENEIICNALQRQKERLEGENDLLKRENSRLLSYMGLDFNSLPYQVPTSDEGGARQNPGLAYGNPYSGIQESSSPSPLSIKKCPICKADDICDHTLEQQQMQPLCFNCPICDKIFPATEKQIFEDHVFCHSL
Experiment: co-IP; endogenous immunoprecipitation of NDP52 from WT HeLa cells treated with oligomycin/antimycin and Bafilomycin (200 nM) for 3 h; cells crosslinked in situ with DSP before immunoprecipitation

binding: no binding
Substance: ATG14 (endogenous) (from UniProt Q6ZNE5 1-492)
